Binding data for one substance are collected here from paper PMC10992996.

Sequences of proteins named here, by UniProt entry; tags and fusion partners are left off. Residues count along the entry.
UniProt Q5IJ48, residues 29-1285: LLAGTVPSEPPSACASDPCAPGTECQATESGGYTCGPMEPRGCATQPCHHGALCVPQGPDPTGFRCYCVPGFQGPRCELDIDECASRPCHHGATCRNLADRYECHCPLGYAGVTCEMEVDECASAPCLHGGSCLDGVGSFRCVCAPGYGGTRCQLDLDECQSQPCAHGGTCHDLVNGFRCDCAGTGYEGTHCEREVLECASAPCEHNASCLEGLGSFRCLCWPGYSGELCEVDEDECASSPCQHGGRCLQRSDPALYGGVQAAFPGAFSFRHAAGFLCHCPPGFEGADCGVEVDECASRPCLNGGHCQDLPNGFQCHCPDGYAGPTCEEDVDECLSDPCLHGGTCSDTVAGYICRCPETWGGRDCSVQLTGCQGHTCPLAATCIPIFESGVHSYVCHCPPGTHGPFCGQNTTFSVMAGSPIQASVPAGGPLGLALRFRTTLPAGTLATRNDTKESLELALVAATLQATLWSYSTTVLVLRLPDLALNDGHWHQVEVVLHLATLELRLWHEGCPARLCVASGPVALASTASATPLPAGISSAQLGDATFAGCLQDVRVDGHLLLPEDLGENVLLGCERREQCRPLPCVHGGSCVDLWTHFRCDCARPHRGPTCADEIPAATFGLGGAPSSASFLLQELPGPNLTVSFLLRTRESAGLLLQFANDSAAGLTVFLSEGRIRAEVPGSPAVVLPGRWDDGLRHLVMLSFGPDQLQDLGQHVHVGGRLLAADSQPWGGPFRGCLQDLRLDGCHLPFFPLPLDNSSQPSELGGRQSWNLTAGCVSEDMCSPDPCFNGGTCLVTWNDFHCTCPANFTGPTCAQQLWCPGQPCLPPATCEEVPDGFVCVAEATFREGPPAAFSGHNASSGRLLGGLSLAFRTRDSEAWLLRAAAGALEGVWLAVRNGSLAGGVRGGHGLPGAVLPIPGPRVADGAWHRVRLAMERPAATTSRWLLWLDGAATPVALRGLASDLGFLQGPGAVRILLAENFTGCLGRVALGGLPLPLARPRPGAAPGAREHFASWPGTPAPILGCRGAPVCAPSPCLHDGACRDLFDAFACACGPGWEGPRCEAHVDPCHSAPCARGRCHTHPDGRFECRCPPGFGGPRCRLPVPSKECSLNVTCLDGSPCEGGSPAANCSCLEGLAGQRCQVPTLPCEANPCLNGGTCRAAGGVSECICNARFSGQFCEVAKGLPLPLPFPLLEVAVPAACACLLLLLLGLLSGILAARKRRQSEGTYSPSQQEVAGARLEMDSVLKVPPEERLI

Test [1] addresses T1, CRB1-FLAG p.C1321S (human) (UniProt P82279).
T1 sequence: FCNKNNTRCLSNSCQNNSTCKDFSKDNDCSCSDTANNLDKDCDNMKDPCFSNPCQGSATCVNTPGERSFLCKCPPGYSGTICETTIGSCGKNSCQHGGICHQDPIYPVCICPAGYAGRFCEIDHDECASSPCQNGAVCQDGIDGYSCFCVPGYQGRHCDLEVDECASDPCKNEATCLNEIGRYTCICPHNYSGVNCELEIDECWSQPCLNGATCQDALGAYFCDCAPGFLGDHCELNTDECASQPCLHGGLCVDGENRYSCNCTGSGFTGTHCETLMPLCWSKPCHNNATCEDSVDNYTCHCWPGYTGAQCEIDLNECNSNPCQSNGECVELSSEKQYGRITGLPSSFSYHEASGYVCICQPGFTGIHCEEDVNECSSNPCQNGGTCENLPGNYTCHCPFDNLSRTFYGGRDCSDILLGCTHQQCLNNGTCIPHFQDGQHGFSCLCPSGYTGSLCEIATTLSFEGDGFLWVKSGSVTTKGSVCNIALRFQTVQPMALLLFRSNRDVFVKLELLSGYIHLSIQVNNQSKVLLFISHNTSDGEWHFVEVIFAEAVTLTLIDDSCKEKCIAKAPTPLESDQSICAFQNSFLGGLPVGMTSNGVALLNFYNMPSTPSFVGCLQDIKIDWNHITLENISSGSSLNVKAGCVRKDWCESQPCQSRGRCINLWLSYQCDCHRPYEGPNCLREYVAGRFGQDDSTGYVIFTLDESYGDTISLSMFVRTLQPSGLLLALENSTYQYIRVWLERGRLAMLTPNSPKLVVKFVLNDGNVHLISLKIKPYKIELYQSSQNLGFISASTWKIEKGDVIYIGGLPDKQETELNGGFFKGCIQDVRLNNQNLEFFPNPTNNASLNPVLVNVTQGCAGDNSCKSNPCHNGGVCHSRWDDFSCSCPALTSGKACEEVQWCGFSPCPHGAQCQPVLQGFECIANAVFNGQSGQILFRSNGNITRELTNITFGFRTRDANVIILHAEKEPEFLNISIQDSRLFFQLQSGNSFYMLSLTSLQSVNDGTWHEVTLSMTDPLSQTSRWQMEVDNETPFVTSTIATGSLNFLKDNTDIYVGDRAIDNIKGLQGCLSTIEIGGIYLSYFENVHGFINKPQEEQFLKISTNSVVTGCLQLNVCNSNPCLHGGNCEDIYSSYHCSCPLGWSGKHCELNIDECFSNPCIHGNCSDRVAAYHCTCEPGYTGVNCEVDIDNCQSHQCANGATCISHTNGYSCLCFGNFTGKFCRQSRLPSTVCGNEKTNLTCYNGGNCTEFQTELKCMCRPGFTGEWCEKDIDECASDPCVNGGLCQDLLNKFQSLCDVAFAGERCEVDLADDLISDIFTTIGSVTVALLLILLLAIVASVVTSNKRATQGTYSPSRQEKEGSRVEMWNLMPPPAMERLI
The test can be described thus: co-IP; HEK293T cells co-transfected pairwise with a FLAG and an HA construct, 48 h; lysis in TBS (30 mM Tris-HCl pH 7.4, 150 mM NaCl) with 0.5% Nonidet P40; FLAG-IP on ANTI-FLAG M2 Affinity Gel 60-90 min at 4°C, elution with FLAG peptide; Western blot with HA and FLAG antibodies; for mutants HA/FLAG signal in eluates relative to WT, three biological replicates.

The target of test [2] is T2, Human canonical CRB1 (Crumbs homolog 1) (human) (UniProt P82279).
T2 sequence: T1 sequence with S1296C
The description is as above.

Positions count from the first letter of the chain named. Results are given in words; binding and its absence hold for the method and conditions named. In cells and extracts the contact can be indirect. Some entries that bind do so weakly or less than the wild type. For some assays here: Sequences can lack the tags named with a protein.

As to “Human canonical CRB2 (Crumbs homolog 2) (from UniProt Q5IJ48-1 29-1285)”, the binding entry in test [1] and in test [2] was “binds” in each case.
